Protein sequences, listed by entry. Tags and fused reporters are not part of them. Lines headed by an entry give the natural chain unless they say otherwise; changes in a name come on top.
UniProt Q9UKQ9: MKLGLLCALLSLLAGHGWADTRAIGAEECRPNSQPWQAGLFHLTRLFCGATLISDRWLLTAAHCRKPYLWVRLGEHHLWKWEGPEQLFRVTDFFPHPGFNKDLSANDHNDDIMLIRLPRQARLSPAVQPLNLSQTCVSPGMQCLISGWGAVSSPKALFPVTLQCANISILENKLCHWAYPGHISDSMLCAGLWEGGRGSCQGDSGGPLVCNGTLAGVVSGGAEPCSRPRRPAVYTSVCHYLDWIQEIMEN

According to PMC5241945, “A new enzyme-linked immunosorbent assay (ELISA) for human free and bound kallikrein 9” (Clinical Proteomics, 2017):

Legend:
[1] = biological target: KLK9, endogenous in ovarian cancer ascites (a1-antichymotrypsin-bound form) (human (endogenous in ovarian cancer ascites)) (UniProt Q9UKQ9); test: ELISA; hybrid sandwich immunoassay on unfractionated ascites: anti-KLK9 mAb 28ED436 coated for capture, sample diluted in Buffer B (50 mM Tris pH 7.8, 0.5 M KCl, BSA, sera), rabbit pAb anti-serpinA3 for detection, ALP-conjugated goat anti-rabbit IgG, time-resolved fluorescence, RT
[2] = biological target: KLK9, endogenous in ovarian cancer ascites (a1-antichymotrypsin-bound form) (human (endogenous in ovarian cancer ascites)) (UniProt Q9UKQ9); test: SEC + ELISA; ascites diluted 10 times in 0.1 M NaH2PO4, 0.1 M Na2SO4 pH 6.8, fractionated on TSKGEL G3000SW; 1 mL fractions analysed by KLK9 ELISA and by KLK9-ACT hybrid ELISA (28ED436 capture, rabbit pAb anti-serpinA3 detection)

B1: a1-antichymotrypsin (ACT), endogenous in ovarian cancer ascites (protein, UniProt P01011 24-423)
chain: HPNSPLDEENLTQENQDRGTHVDLGLASANVDFAFSLYKQLVLKAPDKNVIFSPLSISTALAFLSLGAHNTTLTEILKGLKFNLTETSEAEIHQSFQHLLRTLNQSSDELQLSMGNAMFVKEQLSLLDRFTEDAKRLYGSEAFATDFQDSAAAKKLINDYVKNGTRGKITDLIKDLDSQTMMVLVNYIFFKAKWEMPFDPQDTHQSRFYLSKKKWVMVPMMSLHHLTIPYFRDEELSCTVVELKYTGNASALFILPDQDKMEEVEAMLLPETLKRWRDSLEFREIGELYLPKFSISRDYNLNDILLQLGIEEAFTSKADLSGITGARNLAVSQVVHKAVLDVFEEGTEASAATAVKITLLSALVETRTIVRFNRPFLMIIVPTDTQNIFFMSKVTNPKQA
- binding [1]: binds
- binding [2]: binds

No constants are given. Whether binding was seen depends on the method and setting. Binding can be weak; no strength is given.
